# Reference: PubChem BioAssay AID248 (DTP/NCI, 2004)
# The list does not hold the whole screen: its compounds were picked by chemical class. Other doses and runs of a compound may be missing. T/C: endpoint of the treated group in % of that of the vehicle group. Where survival is the endpoint, the PubChem record calls one and a half times the control and up active, and a quarter to a half above the control has no call in these data; cut-offs in other NCI protocols can differ. Some T/C values are marked as having no survivor count here; that says nothing about deaths at the dose. Schedules are NCI's codes, read here as Q, the interval in days (D) or hours (H), X, the number of doses. Some entries hold several experiments; their values stand side by side, smallest first. Signs of the kind (2×) count equal records among those shown. Some schedule codes hold Z or #, which are not explained here.
# Test system: L1210 leukemia ip in BDF1 mice, survival T/C
# Test: NCI In Vivo Anticancer Drug Screen. Data for tumor model L1210 Leukemia (intraperitoneal) in B6D2F1 (BDF1) mice
# Details: T/C endpoint: mean survival time, higher T/C = longer survival
smiles,measurement,setting,value
CN(CCCl)CCCl,T/C,"dose: 0.06 mg/kg/injection, schedule: Q01DX009 (ip), vehicle: water",103 [survivor count not shown] and 105 % of control [survivor count not shown]
same,T/C,"dose: 0.08 mg/kg/injection, schedule: Q04DX002 (ip), vehicle: water",97 [survivor count not shown] and 105 % of control [survivor count not shown]
same,T/C,"dose: 0.1 mg/kg/injection, schedule: Q01DX001 (ip), vehicle: saline",125 [survivor count not shown] and 133 % of control [survivor count not shown]
same,T/C,"dose: 0.12 mg/kg/injection, schedule: Q01DX001 (ip), vehicle: saline",129 % of control [survivor count not shown]
same,T/C,"dose: 0.12 mg/kg/injection, schedule: Q01DX009 (ip), vehicle: water",131 [survivor count not shown] and 152 % of control [survivor count not shown]
same,T/C,"dose: 0.12 mg/kg/injection, schedule: Q#A X Z (ip), vehicle: saline",135 % of control [survivor count not shown]
same,T/C,"dose: 0.13 mg/kg/injection, schedule: Q01DX009 (ip), vehicle: saline",127 [survivor count not shown] and 129 % of control [survivor count not shown]
same,T/C,"dose: 0.13 mg/kg/injection, schedule: Q01DX010 (ip), vehicle: saline",120 [survivor count not shown] and 134 % of control [survivor count not shown]
same,T/C,"dose: 0.13 mg/kg/injection, schedule: Q01DX015 (ip), vehicle: saline",113 % of control [survivor count not shown]
same,T/C,"dose: 0.16 mg/kg/injection, schedule: Q04DX002 (ip), vehicle: water",109 [survivor count not shown] and 112 % of control [survivor count not shown]
same,T/C,"dose: 0.19 mg/kg/injection, schedule: Q01DX Z (ip), vehicle: saline",204 % of control [survivor count not shown]
same,T/C,"dose: 0.2 mg/kg/injection, schedule: Q01DX001 (ip), vehicle: saline",122 % of control [survivor count not shown]
same,T/C,"dose: 0.2 mg/kg/injection, schedule: Q01DX015 (ip), vehicle: saline",129 % of control [survivor count not shown]
same,T/C,"dose: 0.21 mg/kg/injection, schedule: Q01DX001 (ip), vehicle: saline",132 % of control [survivor count not shown]
same,T/C,"dose: 0.22 mg/kg/injection, schedule: Q01DX001 (ip), vehicle: saline",130 [survivor count not shown] and 134 % of control [survivor count not shown]
same,T/C,"dose: 0.23 mg/kg/injection, schedule: Q01DX009 (ip), vehicle: water",125 [survivor count not shown] and 132 % of control [survivor count not shown]
same,T/C,"dose: 0.25 mg/kg/injection, schedule: Q01DX001 (ip), vehicle: saline",139 % of control [survivor count not shown]
same,T/C,"dose: 0.25 mg/kg/injection, schedule: Q01DX006 (iv), vehicle: saline",115 % of control [survivor count not shown]
same,T/C,"dose: 0.25 mg/kg/injection, schedule: Q01DX009 (ip), vehicle: saline",140 [survivor count not shown] and 151 % of control [survivor count not shown]
same,T/C,"dose: 0.25 mg/kg/injection, schedule: Q01DX010 (ip), vehicle: saline",131 [survivor count not shown] and 151 % of control [survivor count not shown]
same,T/C,"dose: 0.25 mg/kg/injection, schedule: Q01DX Z (im), vehicle: saline",110 % of control [survivor count not shown]
same,T/C,"dose: 0.25 mg/kg/injection, schedule: Q01DX Z (ip), vehicle: saline",157 [survivor count not shown] and 165 % of control [survivor count not shown]
same,T/C,"dose: 0.25 mg/kg/injection, schedule: Q01DX Z (sc), vehicle: saline",113 % of control [survivor count not shown]
same,T/C,"dose: 0.25 mg/kg/injection, schedule: Q#A X Z (ip), vehicle: saline",175 % of control [survivor count not shown]
same,T/C,"dose: 0.3 mg/kg/injection, schedule: Q01DX015 (ip), vehicle: saline",116 % of control [survivor count not shown]
same,T/C,"dose: 0.32 mg/kg/injection, schedule: Q04DX002 (ip), vehicle: water",109 [survivor count not shown] and 126 % of control [survivor count not shown]
same,T/C,"dose: 0.38 mg/kg/injection, schedule: Q01DX Z (ip), vehicle: saline",333 % of control [survivor count not shown]
same,T/C,"dose: 0.4 mg/kg/injection, schedule: Q01DX001 (ip), vehicle: saline",143 % of control [survivor count not shown]
same,T/C,"dose: 0.43 mg/kg/injection, schedule: Q01DX001 (ip), vehicle: saline",127 % of control [survivor count not shown]
same,T/C,"dose: 0.44 mg/kg/injection, schedule: Q01DX001 (ip), vehicle: saline",112 [survivor count not shown] and 115 % of control [survivor count not shown]
same,T/C,"dose: 0.45 mg/kg/injection, schedule: Q01DX001 (ip), vehicle: saline",121 [survivor count not shown] and 134 % of control [survivor count not shown]
same,T/C,"dose: 0.45 mg/kg/injection, schedule: Q01DX009 (ip), vehicle: water",131 [survivor count not shown] and 132 % of control [survivor count not shown]
same,T/C,"dose: 0.5 mg/kg/injection, schedule: Q01DX001 (ip), vehicle: saline",141 [survivor count not shown] and 142 % of control [survivor count not shown]
same,T/C,"dose: 0.5 mg/kg/injection, schedule: Q01DX006 (iv), vehicle: saline",116 % of control [survivor count not shown]
same,T/C,"dose: 0.5 mg/kg/injection, schedule: Q01DX009 (ip), vehicle: saline",154 [survivor count not shown] and 188 % of control [survivor count not shown]
same,T/C,"dose: 0.5 mg/kg/injection, schedule: Q01DX010 (ip), vehicle: saline",108 [survivor count not shown] and 112 % of control [survivor count not shown]
same,T/C,"dose: 0.5 mg/kg/injection, schedule: Q01DX Z (im), vehicle: saline",137 % of control [survivor count not shown]
same,T/C,"dose: 0.5 mg/kg/injection, schedule: Q01DX Z (ip), vehicle: saline",154 [survivor count not shown] and 171 % of control [survivor count not shown]
same,T/C,"dose: 0.5 mg/kg/injection, schedule: Q01DX Z (sc), vehicle: saline",138 % of control [survivor count not shown]
same,T/C,"dose: 0.5 mg/kg/injection, schedule: Q04DX003 (ip), vehicle: clinical formulation",141 % of control [survivor count not shown]
same,T/C,"dose: 0.5 mg/kg/injection, schedule: Q04DX003 (ip), vehicle: none",136 % of control [survivor count not shown]
same,T/C,"dose: 0.5 mg/kg/injection, schedule: Q04DX003 (ip), vehicle: saline",150 % of control [survivor count not shown]
same,T/C,"dose: 0.5 mg/kg/injection, schedule: Q04DX003 (ip), vehicle: water","130 [survivor count not shown], 163 [survivor count not shown], 164 % of control [survivor count not shown]"
same,T/C,"dose: 0.6 mg/kg/injection, schedule: Q04DX002 (ip), vehicle: water",131 [survivor count not shown] and 135 % of control [survivor count not shown]
same,T/C,"dose: 0.65 mg/kg/injection, schedule: Q04DX002 (ip), vehicle: water",124 [survivor count not shown] and 127 % of control [survivor count not shown]
same,T/C,"dose: 0.75 mg/kg/injection, schedule: Q01DX Z (ip), vehicle: saline",113 % of control [survivor count not shown]
same,T/C,"dose: 0.75 mg/kg/injection, schedule: Q03DX Z (ip), vehicle: saline",152 % of control [survivor count not shown]
same,T/C,"dose: 0.8 mg/kg/injection, schedule: Q01DX001 (ip), vehicle: saline",113 % of control [survivor count not shown]
same,T/C,"dose: 0.87 mg/kg/injection, schedule: Q01DX001 (ip), vehicle: saline",137 % of control [survivor count not shown]
same,T/C,"dose: 0.88 mg/kg/injection, schedule: Q01DX001 (ip), vehicle: saline",109 [survivor count not shown] and 122 % of control [survivor count not shown]
same,T/C,"dose: 0.9 mg/kg/injection, schedule: Q01DX001 (ip), vehicle: saline",219 [survivor count not shown] and 234 % of control [survivor count not shown]
same,T/C,"dose: 1.0 mg/kg/injection, schedule: Q01DX001 (ip), vehicle: saline",120 % of control [survivor count not shown]
same,T/C,"dose: 1.0 mg/kg/injection, schedule: Q01DX006 (iv), vehicle: saline",124 % of control [survivor count not shown]
same,T/C,"dose: 1.0 mg/kg/injection, schedule: Q01DX009 (ip), vehicle: saline",88 % of control [survivor count not shown]
same,T/C,"dose: 1.0 mg/kg/injection, schedule: Q01DX010 (ip), vehicle: saline",93 % of control [survivor count not shown]
same,T/C,"dose: 1.0 mg/kg/injection, schedule: Q01DX Z (im), vehicle: saline",89 % of control [survivor count not shown]
same,T/C,"dose: 1.0 mg/kg/injection, schedule: Q01DX Z (ip), vehicle: saline",100 [survivor count not shown] and 122 % of control [survivor count not shown]
same,T/C,"dose: 1.0 mg/kg/injection, schedule: Q01DX Z (oral), vehicle: saline",113 % of control [survivor count not shown]
same,T/C,"dose: 1.0 mg/kg/injection, schedule: Q01DX Z (sc), vehicle: saline",100 % of control [survivor count not shown]
same,T/C,"dose: 1.0 mg/kg/injection, schedule: Q04DX003 (ip), vehicle: clinical formulation",141 % of control [survivor count not shown]
same,T/C,"dose: 1.0 mg/kg/injection, schedule: Q04DX003 (ip), vehicle: none",149 % of control [survivor count not shown]
same,T/C,"dose: 1.0 mg/kg/injection, schedule: Q04DX003 (ip), vehicle: saline",152 % of control [survivor count not shown]
same,T/C,"dose: 1.0 mg/kg/injection, schedule: Q04DX003 (ip), vehicle: water","161 [survivor count not shown], 163 [survivor count not shown], 178 % of control [survivor count not shown]"
same,T/C,"dose: 1.3 mg/kg/injection, schedule: Q01DX001 (ip), vehicle: saline",155 % of control [survivor count not shown]
same,T/C,"dose: 1.3 mg/kg/injection, schedule: Q04DX002 (ip), vehicle: water","124 [survivor count not shown], 129 [survivor count not shown], 130 [survivor count not shown], 145 % of control [survivor count not shown]"
same,T/C,"dose: 1.5 mg/kg/injection, schedule: Q01DX001 (ip), vehicle: saline",181 % of control [survivor count not shown]
same,T/C,"dose: 1.5 mg/kg/injection, schedule: Q03DX Z (ip), vehicle: saline",134 % of control [survivor count not shown]
same,T/C,"dose: 1.75 mg/kg/injection, schedule: Q01DX001 (ip), vehicle: saline","115 [survivor count not shown], 120 [survivor count not shown], 135 [survivor count not shown], 138 [survivor count not shown], 148 % of control [survivor count not shown]"
same,T/C,"dose: 1.75 mg/kg/injection, schedule: Q07DX Z (ip), vehicle: saline",149 % of control [survivor count not shown]
same,T/C,"dose: 1.8 mg/kg/injection, schedule: Q01DX001 (ip), vehicle: saline",106 [survivor count not shown] and 155 % of control [survivor count not shown]
same,T/C,"dose: 1.85 mg/kg/injection, schedule: Q#A X034 (ip), vehicle: saline",106 % of control [survivor count not shown]
same,T/C,"dose: 1.9 mg/kg/injection, schedule: Q01DX001 (ip), vehicle: saline",168 % of control [survivor count not shown]
same,T/C,"dose: 2.0 mg/kg/injection, schedule: Q01DX001 (ip), vehicle: saline",155 % of control [survivor count not shown]
same,T/C,"dose: 2.0 mg/kg/injection, schedule: Q01DX006 (iv), vehicle: saline",113 % of control [survivor count not shown]
same,T/C,"dose: 2.0 mg/kg/injection, schedule: Q01DX Z (oral), vehicle: saline",126 % of control [survivor count not shown]
same,T/C,"dose: 2.0 mg/kg/injection, schedule: Q04DX003 (ip), vehicle: clinical formulation",145 % of control [survivor count not shown]
same,T/C,"dose: 2.0 mg/kg/injection, schedule: Q04DX003 (ip), vehicle: none",133 [survivor count not shown] and 135 % of control [survivor count not shown]
same,T/C,"dose: 2.0 mg/kg/injection, schedule: Q04DX003 (ip), vehicle: saline",129 % of control [survivor count not shown]
same,T/C,"dose: 2.0 mg/kg/injection, schedule: Q04DX003 (ip), vehicle: water","133 [survivor count not shown], 137 [survivor count not shown] (2×), 139 % of control [survivor count not shown]"
same,T/C,"dose: 2.5 mg/kg/injection, schedule: Q01DX001 (ip), vehicle: saline",260 % of control [survivor count not shown]
same,T/C,"dose: 2.6 mg/kg/injection, schedule: Q04DX002 (ip), vehicle: water","126 [survivor count not shown], 130 [survivor count not shown], 131 [survivor count not shown], 132 % of control [survivor count not shown]"
same,T/C,"dose: 2.9 mg/kg/injection, schedule: Q01DX001 (ip), vehicle: saline",168 % of control [survivor count not shown]
same,T/C,"dose: 3.0 mg/kg/injection, schedule: Q01DX001 (ip), vehicle: saline",197 % of control [survivor count not shown]
same,T/C,"dose: 3.0 mg/kg/injection, schedule: Q03DX Z (ip), vehicle: saline",96 % of control [survivor count not shown]
same,T/C,"dose: 3.13 mg/kg/injection, schedule: Q01DX001 (ip), vehicle: saline",141 % of control [survivor count not shown]
same,T/C,"dose: 3.5 mg/kg/injection, schedule: Q01DX001 (ip), vehicle: saline","113 [survivor count not shown], 117 [survivor count not shown], 124 [survivor count not shown] (2×), 135 [survivor count not shown], 211 % of control [survivor count not shown]"
